From patent US20240336674A1 come the findings set out here.

This assay concerns the target T1, Rabbit Sema3A (rabbit) (UniProt G1T285).
T1 sequence: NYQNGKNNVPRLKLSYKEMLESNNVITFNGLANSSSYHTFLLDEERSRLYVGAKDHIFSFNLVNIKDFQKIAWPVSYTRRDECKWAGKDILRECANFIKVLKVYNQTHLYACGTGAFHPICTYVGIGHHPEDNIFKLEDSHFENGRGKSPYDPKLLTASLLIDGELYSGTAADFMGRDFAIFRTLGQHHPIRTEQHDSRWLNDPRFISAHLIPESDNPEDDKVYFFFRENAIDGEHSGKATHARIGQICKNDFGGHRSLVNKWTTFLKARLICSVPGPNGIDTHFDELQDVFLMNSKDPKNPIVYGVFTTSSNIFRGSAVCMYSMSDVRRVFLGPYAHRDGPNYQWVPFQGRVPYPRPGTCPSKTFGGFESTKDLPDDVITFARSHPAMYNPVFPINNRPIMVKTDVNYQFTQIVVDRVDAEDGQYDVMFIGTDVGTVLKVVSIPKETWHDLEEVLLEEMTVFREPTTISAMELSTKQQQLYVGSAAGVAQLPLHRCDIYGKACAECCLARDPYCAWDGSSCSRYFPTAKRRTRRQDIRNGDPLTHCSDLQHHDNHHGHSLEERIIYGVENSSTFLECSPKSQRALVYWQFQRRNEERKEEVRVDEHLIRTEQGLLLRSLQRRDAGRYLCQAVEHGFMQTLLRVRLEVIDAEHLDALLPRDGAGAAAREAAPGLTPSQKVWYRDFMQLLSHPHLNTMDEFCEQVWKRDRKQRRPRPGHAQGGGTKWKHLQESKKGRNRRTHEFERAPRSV
Description: biosensor GLM chip (BioRad), kinetic binding assay.

Results are given in words; binding and its absence hold for the method and conditions named. Some binding calls cover weakened binding; strength is not graded here.

B1: Antibody of the invention (clone I) (antibody, human IgG1, kappa, L234A L235A, V domains shown)
VH: EVQLVESGGGLVQPGGSLRLSCAASGFTFSSYYMSWVRQAPGKGLEWVSTIIKSGGYAYYPDSVKDRFTISRDNSKNTLYLQMSSLRAEDTAVYYCVRGGQGAMDYWGQGTTVTVSS
VL: EIVLTQSPATLSLSPGERATLSCRASQSIGDYLHWYQQKPGQAPRLLIKYASQSISGIPARFSGSGSGTDFTLTITSLEPEDFAVYYCQQGYSFPYTFGGGTKLEIKR
As to B1, the binding entry was “binds”.
